Data as given in patent publication US20240368727A1, “METHOD OF SELECTIVE PRECIPITATION OF METALS USING AMIDE COMPOUNDS” (The University Court of the University of Edinburgh, priority 2021, published 2024).

Test: Precipitation of Au by L from various aqueous matrices (Table 1)
Details: 1 hour, room temperature
Experimental: Conditions: 2 mL Au solution contacted with 0.059 g L for 1 hour, room temperature. Solution filtered and diluted 100× in 2% HNO3 prior to ICP-OES analysis. *HAuCl4 used. **Au^0 added to sulfuric acid solution with a few drops of 30% hydrogen peroxide added to aid dissolution of Au. All solutions were diluted 100× prior to ICP-OES analysis.

With CN(CCN(C)C(=O)c1ccccc1)C(=O)c1ccccc1 [L] the “Au concentration after contact with L” value (2 mol L^−1 H2SO4 and 2M NaBr, Au^0 with H2O2, initial Au 1930 mg L^−1, 0.059 g L) was 9.00 mg/L, the “Au concentration after contact with L” value (2 mol L^−1 H2SO4 and 2M NaCl, Au^0 with H2O2, initial Au 1940 mg L^−1, 0.059 g L) was 12.2 mg/L and the “Au concentration after contact with L” value (20% Aqua regia, HAuCl4 used, initial Au 1920 mg L^−1, 0.059 g L) was 4.00 mg/L. The “Au concentration after contact with L” value (100% Aqua regia, HAuCl4 used, initial Au 1920 mg L^−1, 2 mL contacted with 0.059 g L) was 6.00 mg/L.
